Experimental data published in the supplement of paper PMC10849652.
The list shows a part of the results.

Sequences of proteins named here, by UniProt entry; tags and fusion partners are left off. A change or cut given only in a name is not applied to a line headed by its entry.
UniProt P78560: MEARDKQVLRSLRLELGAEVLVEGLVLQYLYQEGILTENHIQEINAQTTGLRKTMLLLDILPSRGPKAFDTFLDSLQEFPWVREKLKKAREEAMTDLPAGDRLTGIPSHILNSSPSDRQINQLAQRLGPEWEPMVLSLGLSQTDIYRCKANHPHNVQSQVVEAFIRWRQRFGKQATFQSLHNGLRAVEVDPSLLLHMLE
UniProt Q7Z4G1, whole entry, looked up: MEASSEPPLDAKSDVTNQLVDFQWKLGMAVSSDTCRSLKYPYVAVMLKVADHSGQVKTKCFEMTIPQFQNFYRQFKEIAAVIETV
UniProt P53674: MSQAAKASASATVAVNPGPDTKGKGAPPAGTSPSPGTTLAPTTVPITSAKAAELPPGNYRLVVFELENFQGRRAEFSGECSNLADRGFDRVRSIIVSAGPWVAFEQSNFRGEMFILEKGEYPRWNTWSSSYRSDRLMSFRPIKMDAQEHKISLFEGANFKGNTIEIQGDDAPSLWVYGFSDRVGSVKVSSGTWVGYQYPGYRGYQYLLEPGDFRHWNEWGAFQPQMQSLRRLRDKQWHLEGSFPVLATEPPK
UniProt Q16526: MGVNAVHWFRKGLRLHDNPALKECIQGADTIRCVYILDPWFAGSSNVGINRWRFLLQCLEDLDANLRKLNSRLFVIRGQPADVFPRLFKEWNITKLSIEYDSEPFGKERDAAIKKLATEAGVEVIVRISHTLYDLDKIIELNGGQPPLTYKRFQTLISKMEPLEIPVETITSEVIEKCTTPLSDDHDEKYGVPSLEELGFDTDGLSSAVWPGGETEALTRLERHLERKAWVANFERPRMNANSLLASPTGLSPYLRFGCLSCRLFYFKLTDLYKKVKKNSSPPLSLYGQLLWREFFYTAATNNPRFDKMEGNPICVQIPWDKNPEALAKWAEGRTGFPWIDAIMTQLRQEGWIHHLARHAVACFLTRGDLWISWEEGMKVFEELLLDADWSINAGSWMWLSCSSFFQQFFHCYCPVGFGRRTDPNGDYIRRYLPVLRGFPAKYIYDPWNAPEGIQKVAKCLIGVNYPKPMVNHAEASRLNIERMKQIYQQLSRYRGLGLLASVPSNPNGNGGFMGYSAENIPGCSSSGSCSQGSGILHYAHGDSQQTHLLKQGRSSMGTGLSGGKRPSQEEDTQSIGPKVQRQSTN
UniProt Q86T23: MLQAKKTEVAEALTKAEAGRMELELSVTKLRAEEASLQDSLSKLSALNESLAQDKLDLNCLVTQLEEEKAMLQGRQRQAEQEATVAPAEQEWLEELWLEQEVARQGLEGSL
UniProt P54108: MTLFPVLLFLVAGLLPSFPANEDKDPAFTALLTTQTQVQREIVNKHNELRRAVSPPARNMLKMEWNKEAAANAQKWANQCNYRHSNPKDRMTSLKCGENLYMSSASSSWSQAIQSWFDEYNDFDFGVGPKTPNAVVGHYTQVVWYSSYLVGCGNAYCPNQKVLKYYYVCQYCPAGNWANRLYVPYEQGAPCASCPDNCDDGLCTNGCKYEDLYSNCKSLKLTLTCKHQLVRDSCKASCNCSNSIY
UniProt P12111: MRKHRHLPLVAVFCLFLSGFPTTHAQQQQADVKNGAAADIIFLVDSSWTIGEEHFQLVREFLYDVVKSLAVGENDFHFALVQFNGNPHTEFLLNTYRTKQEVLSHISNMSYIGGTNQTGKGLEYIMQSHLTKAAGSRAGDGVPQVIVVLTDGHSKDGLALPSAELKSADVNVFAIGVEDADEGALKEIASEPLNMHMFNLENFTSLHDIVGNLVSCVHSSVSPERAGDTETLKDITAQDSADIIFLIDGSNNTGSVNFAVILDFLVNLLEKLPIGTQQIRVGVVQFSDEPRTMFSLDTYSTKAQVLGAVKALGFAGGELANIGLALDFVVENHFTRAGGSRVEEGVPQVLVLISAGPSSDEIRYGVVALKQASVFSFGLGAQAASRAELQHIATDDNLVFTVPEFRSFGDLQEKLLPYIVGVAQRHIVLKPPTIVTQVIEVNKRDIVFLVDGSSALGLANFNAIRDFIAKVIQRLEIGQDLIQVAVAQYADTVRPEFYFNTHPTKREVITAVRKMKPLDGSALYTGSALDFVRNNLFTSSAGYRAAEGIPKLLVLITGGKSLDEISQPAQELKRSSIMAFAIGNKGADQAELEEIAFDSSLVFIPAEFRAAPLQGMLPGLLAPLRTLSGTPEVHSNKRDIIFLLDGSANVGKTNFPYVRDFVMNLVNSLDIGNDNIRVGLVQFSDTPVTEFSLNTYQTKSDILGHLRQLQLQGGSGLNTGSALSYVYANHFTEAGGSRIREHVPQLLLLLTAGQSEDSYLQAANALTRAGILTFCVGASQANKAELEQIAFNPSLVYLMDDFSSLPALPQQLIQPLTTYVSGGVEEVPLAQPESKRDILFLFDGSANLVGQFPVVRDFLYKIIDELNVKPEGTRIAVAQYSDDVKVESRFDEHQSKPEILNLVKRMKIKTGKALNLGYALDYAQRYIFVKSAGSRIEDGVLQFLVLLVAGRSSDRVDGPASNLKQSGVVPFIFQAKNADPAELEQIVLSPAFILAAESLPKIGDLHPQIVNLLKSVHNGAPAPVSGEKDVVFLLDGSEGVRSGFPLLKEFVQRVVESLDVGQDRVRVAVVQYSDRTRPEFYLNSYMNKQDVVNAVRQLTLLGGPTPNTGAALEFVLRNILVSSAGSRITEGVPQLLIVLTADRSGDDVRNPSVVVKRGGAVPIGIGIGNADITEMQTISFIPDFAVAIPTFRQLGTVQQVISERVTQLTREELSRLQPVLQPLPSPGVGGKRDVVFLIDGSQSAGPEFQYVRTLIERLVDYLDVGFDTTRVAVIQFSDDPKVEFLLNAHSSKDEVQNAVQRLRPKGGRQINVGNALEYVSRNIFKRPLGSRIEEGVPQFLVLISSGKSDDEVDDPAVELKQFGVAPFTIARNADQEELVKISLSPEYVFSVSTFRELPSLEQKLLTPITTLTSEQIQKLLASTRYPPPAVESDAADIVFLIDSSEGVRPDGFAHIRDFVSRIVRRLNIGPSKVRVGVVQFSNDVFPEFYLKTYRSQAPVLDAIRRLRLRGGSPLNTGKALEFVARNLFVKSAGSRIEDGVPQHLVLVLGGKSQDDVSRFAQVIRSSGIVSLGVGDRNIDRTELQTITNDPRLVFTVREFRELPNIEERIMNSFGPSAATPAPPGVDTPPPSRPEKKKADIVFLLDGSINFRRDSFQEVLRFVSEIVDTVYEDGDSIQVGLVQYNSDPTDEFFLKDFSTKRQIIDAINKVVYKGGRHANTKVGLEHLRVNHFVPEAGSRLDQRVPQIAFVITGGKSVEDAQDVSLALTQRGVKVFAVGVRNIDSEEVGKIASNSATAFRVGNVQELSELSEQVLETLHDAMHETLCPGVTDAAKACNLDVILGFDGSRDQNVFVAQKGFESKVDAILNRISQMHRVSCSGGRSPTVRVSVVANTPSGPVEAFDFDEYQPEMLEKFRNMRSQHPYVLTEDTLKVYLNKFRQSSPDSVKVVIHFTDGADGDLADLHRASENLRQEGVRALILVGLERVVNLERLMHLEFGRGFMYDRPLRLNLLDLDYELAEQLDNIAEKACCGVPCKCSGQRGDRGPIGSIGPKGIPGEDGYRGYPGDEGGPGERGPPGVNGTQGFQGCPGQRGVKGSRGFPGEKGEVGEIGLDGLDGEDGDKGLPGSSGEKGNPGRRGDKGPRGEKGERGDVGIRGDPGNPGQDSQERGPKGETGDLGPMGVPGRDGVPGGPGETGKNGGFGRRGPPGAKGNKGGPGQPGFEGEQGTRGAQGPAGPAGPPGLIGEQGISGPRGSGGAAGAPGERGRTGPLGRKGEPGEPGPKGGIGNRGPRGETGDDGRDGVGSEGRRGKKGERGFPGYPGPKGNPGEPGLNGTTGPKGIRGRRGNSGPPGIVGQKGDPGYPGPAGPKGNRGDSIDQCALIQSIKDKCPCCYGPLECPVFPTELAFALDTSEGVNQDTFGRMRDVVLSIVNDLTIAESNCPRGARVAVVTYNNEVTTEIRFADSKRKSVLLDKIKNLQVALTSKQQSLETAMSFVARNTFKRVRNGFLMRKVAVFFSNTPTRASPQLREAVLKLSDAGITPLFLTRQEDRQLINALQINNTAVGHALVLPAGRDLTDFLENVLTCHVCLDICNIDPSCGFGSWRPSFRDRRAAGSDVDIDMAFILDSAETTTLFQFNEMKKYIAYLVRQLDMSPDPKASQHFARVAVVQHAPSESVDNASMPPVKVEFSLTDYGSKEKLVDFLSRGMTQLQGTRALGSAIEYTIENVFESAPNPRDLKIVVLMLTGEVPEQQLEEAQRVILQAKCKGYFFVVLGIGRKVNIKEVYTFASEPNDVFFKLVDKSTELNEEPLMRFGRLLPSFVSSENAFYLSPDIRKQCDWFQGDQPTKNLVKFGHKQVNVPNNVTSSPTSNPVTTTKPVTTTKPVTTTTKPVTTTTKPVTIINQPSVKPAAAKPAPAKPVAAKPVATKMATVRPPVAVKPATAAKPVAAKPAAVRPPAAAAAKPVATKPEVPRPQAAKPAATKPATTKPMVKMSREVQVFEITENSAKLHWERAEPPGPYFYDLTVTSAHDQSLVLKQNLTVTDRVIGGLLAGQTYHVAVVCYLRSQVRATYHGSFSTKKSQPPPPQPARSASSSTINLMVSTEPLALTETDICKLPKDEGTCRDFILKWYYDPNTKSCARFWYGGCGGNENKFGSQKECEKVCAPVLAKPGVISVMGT
UniProt P00450: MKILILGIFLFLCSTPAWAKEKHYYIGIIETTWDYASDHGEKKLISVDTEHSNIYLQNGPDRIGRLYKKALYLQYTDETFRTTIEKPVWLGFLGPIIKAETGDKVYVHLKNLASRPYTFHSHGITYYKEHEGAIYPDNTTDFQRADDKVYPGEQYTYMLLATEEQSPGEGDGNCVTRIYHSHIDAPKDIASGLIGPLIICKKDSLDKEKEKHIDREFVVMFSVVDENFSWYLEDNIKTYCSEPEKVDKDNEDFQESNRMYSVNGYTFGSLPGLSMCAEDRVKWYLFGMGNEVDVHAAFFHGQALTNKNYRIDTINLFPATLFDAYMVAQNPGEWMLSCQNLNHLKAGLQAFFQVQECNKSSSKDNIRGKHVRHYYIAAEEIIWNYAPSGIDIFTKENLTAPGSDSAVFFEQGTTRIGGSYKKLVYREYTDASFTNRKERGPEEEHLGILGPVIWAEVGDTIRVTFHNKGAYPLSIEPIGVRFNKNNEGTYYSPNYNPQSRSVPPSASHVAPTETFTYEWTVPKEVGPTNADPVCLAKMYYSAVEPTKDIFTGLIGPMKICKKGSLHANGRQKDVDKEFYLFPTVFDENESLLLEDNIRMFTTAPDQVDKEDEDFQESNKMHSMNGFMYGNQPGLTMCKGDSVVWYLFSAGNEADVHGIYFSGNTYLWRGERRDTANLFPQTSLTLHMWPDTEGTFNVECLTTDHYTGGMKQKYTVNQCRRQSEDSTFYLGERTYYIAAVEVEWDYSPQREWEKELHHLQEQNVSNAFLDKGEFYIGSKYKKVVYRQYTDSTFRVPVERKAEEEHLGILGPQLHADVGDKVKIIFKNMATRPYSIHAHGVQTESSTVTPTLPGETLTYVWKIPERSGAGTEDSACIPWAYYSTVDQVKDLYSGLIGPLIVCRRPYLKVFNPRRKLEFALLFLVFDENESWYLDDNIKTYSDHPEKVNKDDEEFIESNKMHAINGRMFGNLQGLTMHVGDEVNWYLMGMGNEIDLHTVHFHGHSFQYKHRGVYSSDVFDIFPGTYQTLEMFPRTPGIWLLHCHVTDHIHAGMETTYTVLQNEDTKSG
UniProt Q96H96: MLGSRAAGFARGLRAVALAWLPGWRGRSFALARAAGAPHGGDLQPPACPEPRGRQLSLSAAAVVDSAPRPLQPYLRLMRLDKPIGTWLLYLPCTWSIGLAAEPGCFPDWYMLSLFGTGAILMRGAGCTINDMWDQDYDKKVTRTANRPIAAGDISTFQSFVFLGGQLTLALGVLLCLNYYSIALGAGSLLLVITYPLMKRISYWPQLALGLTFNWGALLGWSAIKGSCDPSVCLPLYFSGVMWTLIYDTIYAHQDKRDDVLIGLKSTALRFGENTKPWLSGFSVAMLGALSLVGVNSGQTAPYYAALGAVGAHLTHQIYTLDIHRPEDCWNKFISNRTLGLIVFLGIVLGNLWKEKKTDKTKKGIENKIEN
UniProt Q9UBG3: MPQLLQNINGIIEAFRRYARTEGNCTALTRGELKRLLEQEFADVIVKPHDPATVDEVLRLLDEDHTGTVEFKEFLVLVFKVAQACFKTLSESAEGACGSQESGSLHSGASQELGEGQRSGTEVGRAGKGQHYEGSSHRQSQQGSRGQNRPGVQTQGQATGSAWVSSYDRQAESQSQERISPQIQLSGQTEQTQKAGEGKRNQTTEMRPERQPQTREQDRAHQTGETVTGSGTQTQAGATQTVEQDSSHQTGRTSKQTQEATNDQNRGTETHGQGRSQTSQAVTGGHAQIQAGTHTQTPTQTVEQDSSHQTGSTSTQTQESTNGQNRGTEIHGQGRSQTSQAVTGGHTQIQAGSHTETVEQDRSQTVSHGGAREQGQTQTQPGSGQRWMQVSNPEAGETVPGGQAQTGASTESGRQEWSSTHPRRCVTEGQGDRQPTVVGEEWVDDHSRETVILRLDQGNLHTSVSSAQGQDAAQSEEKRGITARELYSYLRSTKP

How the values were obtained:
Experiment in all cases: log2 fold change, soluble protein after heating vs DMSO (PISA); higher = thermal stabilisation; K562 cells, 10 uM, 30 min; active = over 0.2 and 3.5 SD of the protein, either way, in both replicates (recomputed)
[1] = compound: C[C@H](C1=CC=C(C=C1)C(=O)NC2=C3C=CNC3=NC=C2)N
Summary of the method: (§1)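 For each measurement, 10 μM compound was applied for 30 min to K562 cells at 2×10^6 cells/mL. Aliquots were heated for 3 min across 48°C-58°C, pooled, and extracted in PBS with 0.5% NP-40 at 4°C; the supernatant after 21,000xg for 90 min was soluble protein. This was quantified by TMTpro 16plex LC-MS/MS with channel sums equalised, and thermal stability was reported relative to control samples from duplicates, on a log2 fold-change scale.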

duvelisib = compound: C[C@H](Nc1ncnc2nc[nH]c12)c1cc2cccc(Cl)c2c(=O)n1-c1ccccc1 [duvelisib]
Summary of the method: as §1

tozasertib = compound: Cc1cc(Nc2cc(N3CCN(C)CC3)nc(Sc3ccc(NC(=O)C4CC4)cc3)n2)n[nH]1 [tozasertib]
Summary of the method: as §1

[2] = compound: Cc1cc(SCc2sc(-c3ccc(C(F)(F)F)cc3)nc2C)ccc1OCC(=O)O
Summary of the method: as §1

dasatinib = compound: Cc1nc(Nc2ncc(C(=O)Nc3c(C)cccc3Cl)s2)cc(N2CCN(CCO)CC2)n1 [dasatinib]
Summary of the method: as §1

[3] = compound: Cn1cc(-c2ccc3c(c2)CCN3C(=O)Cc2cccc(C(F)(F)F)c2)c2c(N)ncnc21
Summary of the method: as §1

[4] = compound: CS(=O)(=O)c1ccc(-c2cnc(N)c(C(=O)Nc3ccccc3)n2)cc1
Summary of the method: as §1

[5] = compound: C[C@@H]1COCCN1C2=NC(=NC(=C2)C3(CC3)S(=O)(=O)C)C4=C5C=CNC5=CC=C4
Summary of the method: as §1

gandotinib = compound: Cc1cc(Nc2cc(CN3CCOCC3)c3nc(C)c(Cc4ccc(Cl)cc4F)n3n2)n[nH]1 [gandotinib]
Summary of the method: as §1

ispinesib = compound: Cc1ccc(C(=O)N(CCCN)[C@@H](c2nc3cc(Cl)ccc3c(=O)n2Cc2ccccc2)C(C)C)cc1 [ispinesib]
Summary of the method: as §1

bafetinib = compound: Cc1ccc(NC(=O)c2ccc(CN3CC[C@H](N(C)C)C3)c(C(F)(F)F)c2)cc1Nc1nccc(-c2cncnc2)n1 [bafetinib]
Summary of the method: as §1

[6] = compound: Cc1cccc(CC(=O)N2CCc3c2ccc(-c2cn(C)c4ncnc(N)c24)c3F)n1
Summary of the method: as §1

nilotinib = compound: Cc1cn(-c2cc(NC(=O)c3ccc(C)c(Nc4nccc(-c5cccnc5)n4)c3)cc(C(F)(F)F)c2)cn1 [nilotinib]
Summary of the method: as §1

[7] = compound: Cc1nc(Nc2n[nH]c3c2CN(C(=O)N[C@H](CN(C)C)c2ccccc2)C3(C)C)c2sccc2n1
Summary of the method: as §1

[8] = compound: Cc1ncc(-c2ccnc(Nc3ccc(S(C)(=O)=O)cc3)n2)n1C(C)C
Summary of the method: as §1

[9] = compound: Cn1cc(-c2ccc3nnc(C(F)(F)c4ccc5ncccc5c4)n3n2)cn1
Summary of the method: as §1

tipifarnib = compound: Cn1cncc1[C@@](N)(c1ccc(Cl)cc1)c1ccc2c(c1)c(-c1cccc(Cl)c1)cc(=O)n2C [tipifarnib]
Summary of the method: as §1

mubritinib = compound: FC(F)(F)c1ccc(/C=C/c2nc(COc3ccc(CCCCn4ccnn4)cc3)co2)cc1 [mubritinib]
Summary of the method: as §1

crizotinib = compound: C[C@@H](Oc1cc(-c2cnn(C3CCNCC3)c2)cnc1N)c1c(Cl)ccc(F)c1Cl [crizotinib]
Summary of the method: as §1

doramapimod = compound: Cc1ccc(-n2nc(C(C)(C)C)cc2NC(=O)Nc2ccc(OCCN3CCOCC3)c3ccccc23)cc1 [doramapimod]
Summary of the method: as §1

Measured: log2 fold change

COL2A1 (UniProt P02458)
inactive: [1] 0.41 | duvelisib -0.312 | tozasertib -0.283 | [2] -0.491 | dasatinib 0.26 | [3] 0.49

CREM isoform 1 (UniProt Q03060)
inactive: [4] -0.028 | [5] 0.113 | [1] 0.042 | duvelisib -0.066 | gandotinib -0.056 | tozasertib -0.014 | [2] -0.009 | ispinesib -0.004 | bafetinib -0.061 | [6] 0.326 | nilotinib 0.048 | [7] 0.078 | dasatinib 0.007 | [8] 0.074 | [3] -0.136 | [9] -0.02 | tipifarnib 0.075 | mubritinib 0.032

CRADD (UniProt P78560)
inactive: crizotinib -0.169 | [1] 0.134 | tozasertib 0.254 | doramapimod 0.042 | [3] -0.033

COMMD6 isoform 2 (UniProt Q7Z4G1)
inactive: [5] 0.007 | gandotinib -0.065 | [6] 0.01

CRYBB1 (UniProt P53674)
inactive: crizotinib -0.597 | [5] 0.861 | duvelisib 0.019 | [2] -0.095 | doramapimod -0.075 | dasatinib -0.011

CORO2A (UniProt Q92828)
inactive: [4] -0.085 | [1] 0.101 | gandotinib 0.061 | [2] 0.023 | ispinesib -0.046 | bafetinib 0.021 | [6] 0.015 | nilotinib -0.047 | [7] -0.052 | dasatinib -0.066 | [8] -0.049 | [3] -0.017 | [9] -0.255 | tipifarnib -0.005 | mubritinib 0.048

CRTC3 (UniProt Q6UUV7)
inactive: [4] -0.004 | [5] 0.177 | [1] 0.071 | ispinesib 0.129 | bafetinib -0.018 | [3] -0.002 | [9] -0.019 | tipifarnib -0.302 | mubritinib -0.168

CPNE7 (UniProt Q9UBL6)
inactive: crizotinib 0.09 | [1] -0.015 | duvelisib 0.069 | tozasertib -0.03 | [2] 0.127 | doramapimod 0.017 | ispinesib 0.089 | bafetinib 0.028 | nilotinib 0.057 | [7] -0.077 | dasatinib -0.067 | [8] -0.073 | [3] 0.092 | [9] 0.079 | tipifarnib -0.073 | mubritinib 0.097

COL25A1 (UniProt Q9BXS0)
inactive: [5] 0.13 | bafetinib 0.285

CSGALNACT2 (UniProt Q8N6G5)
inactive: crizotinib 0.118 | [5] 0.146 | [1] 0.176 | doramapimod -0.027 | bafetinib 0.017 | nilotinib -0.05 | [7] 0.105 | [8] -0.008 | [3] -0.053

CRY2 (UniProt Q49AN0)
inactive: duvelisib 0.275 | tozasertib -0.08 | [2] -0.282 | bafetinib -0.066 | nilotinib -0.101 | [7] -0.071 | dasatinib -0.076 | [8] -0.049

CRY1 (UniProt Q16526)
inactive: [5] 0.076 | gandotinib -0.223 | ispinesib -0.032 | [6] -0.007 | nilotinib 0.104 | [7] -0.015 | [8] 0.052 | [9] -0.07 | tipifarnib -0.009

COX10 (UniProt Q12887)
inactive: crizotinib -0.187 | [5] -0.325 | [1] -0.014 | duvelisib 0.004 | gandotinib 0.302 | tozasertib -0.031 | [2] -0.026 | doramapimod -0.089 | ispinesib -0.242 | bafetinib -0.023 | [6] -0.046 | nilotinib 0.134 | [7] -0.117 | dasatinib -0.001 | [8] 0.18 | [3] -0.098 | [9] -0.205 | tipifarnib 0 | mubritinib 0.053

CROCCP2 (UniProt Q86T23)
inactive: ispinesib 0.013 | bafetinib -0.03 | [9] 0.103

CRISP3 isoform 3 (UniProt P54108)
inactive: bafetinib 0.761

COMMD3 (UniProt Q9UBI1)
inactive: crizotinib -0.067 | [1] -0.019 | duvelisib 0.047 | tozasertib 0.292 | [2] 0.102 | doramapimod 0.076 | ispinesib 0.055 | bafetinib -0.004 | nilotinib -0.04 | [7] -0.11 | dasatinib -0.036 | [8] 0.017 | [3] 0.056 | [9] -0.009 | tipifarnib -0.221 | mubritinib -0.113

CRAT (UniProt P43155)
inactive: [1] 0.542 | [3] 0.089 | tipifarnib -0.266

COLEC11 isoform 10 (UniProt Q9BWP8)
inactive: crizotinib -0.09 | [5] -0.019 | [1] -0.031 | duvelisib 0.139 | [2] -0.028 | doramapimod -0.153 | bafetinib 0.038 | nilotinib 0.065 | [7] 0.028 | dasatinib 0.067 | [8] -0.006 | [3] -0.016 | mubritinib 0.016

COL6A3 (UniProt P12111)
inactive: [5] -0.001 | gandotinib -0.068 | [6] -0.15 | tipifarnib 0.078

CREB3L2 (UniProt Q70SY1)
inactive: crizotinib 0.098 | [5] -0.076 | [1] -0.26 | doramapimod 0.128 | ispinesib -0.342 | bafetinib 0.01 | nilotinib 0.091 | [7] -0.009 | [8] -0.119 | [3] 0.039 | [9] -0.024 | mubritinib 0.13

CSNK1A1 isoform 3 (UniProt P48729)
inactive: bafetinib 0.224 | tipifarnib 0.165 | mubritinib 0.055

COMMD3-BMI1 (UniProt R4GMX3)
inactive: [4] 0.074 | [5] -0.031 | [1] 0.019 | gandotinib -0.011 | [6] -0.032 | nilotinib -0.109 | [7] -0.02 | [8] 0.046 | [3] 0.141 | tipifarnib 0.435

COL3A1 (UniProt P02461)
inactive: crizotinib -0.079 | [5] -0.194 | [1] 0.347 | duvelisib -0.227 | gandotinib -0.011 | tozasertib 0.073 | [2] -0.18 | doramapimod 0.243 | ispinesib -0.141 | [6] -0.085 | dasatinib 0.174 | [3] 0.204 | [9] -0.045 | tipifarnib -0.087

CP (UniProt P00450)
inactive: ispinesib -0.027 | bafetinib 0.19 | [9] -0.081 | tipifarnib 0.12

CPN1 (UniProt P15169)
inactive: duvelisib -0.133 | tozasertib 0.135 | [2] 0.09 | ispinesib -0.142 | bafetinib -0.081 | dasatinib -0.138 | [9] 0.102

CRABP1 (UniProt P29762)
inactive: gandotinib -0.191 | [6] 0.063

COP1 (UniProt Q8NHY2)
inactive: [1] 0.129 | ispinesib -0.022 | [3] -0.153 | [9] 0.102 | tipifarnib -0.036

COQ4 (UniProt Q9Y3A0)
inactive: ispinesib -0.097 | [9] -0.059

Pulled one by one from the list above (2):
COL2A1 (UniProt P02458)
inactive: [1] 0.41 | duvelisib -0.312 | tozasertib -0.283 | [2] -0.491 | dasatinib 0.26 | [3] 0.49

CPN1 (UniProt P15169)
inactive: duvelisib -0.133 | tozasertib 0.135 | [2] 0.09 | ispinesib -0.142 | bafetinib -0.081 | dasatinib -0.138 | [9] 0.102

Later entries

COQ2 (UniProt Q96H96)
inactive: [5] -0.319

CPA4 (UniProt Q9UI42)
inactive: tozasertib -0.077

CRNN (UniProt Q9UBG3)
inactive: bafetinib 0.417 | mubritinib 0.335

CPLX1 (UniProt O14810)
inactive: crizotinib 0.069 | [5] -0.016 | duvelisib 0.169 | gandotinib -0.073 | [2] 0.004 | doramapimod -0.018 | ispinesib 0.108 | bafetinib -0.063 | [6] -0.059 | dasatinib 0.123 | [9] 0.11 | mubritinib 0.207

CRABP2 (UniProt P29373)
inactive: [5] -0.266 | duvelisib 0.178 | gandotinib 0.293 | [2] 0.11 | [6] -0.132 | dasatinib -0.102 | mubritinib 0.086

CS (UniProt F8VU34)
inactive: bafetinib 0.044

CPNE5 (UniProt Q9HCH3)
inactive: [1] 0.148 | [3] -0.077
